Results taken from the supplement of paper PMC12873370.
Values joined by “and” are separate entries in the source; they are usually repeats but may differ in a detail not shown here. Equal values may be shown once. The list shows a part of the results. Repeats are few or missing, and single values can be far off.

How the values were obtained:
[1] = test system: MEPP (mouse ovarian epithelium Trp53/Pten KO); experiment: cell viability relative to untreated (fraction); higher = less growth inhibition; details: 5 µM; 3 days
[2] = test system: PREPP (mouse prostate epithelium Trp53/Pten KO); experiment: as above; details: 5 µM; 3 days

Structure (SMILES)	cell viability [1]	cell viability [2]
O=C(O)CCCCC(=O)O	0.961	1.07
COc1ccc(-c2cc(=O)c3c(O)cc(O)cc3o2)cc1O	0.652	0.741
CC(C)[C@H](NC(=O)CN)C(=O)O	0.867	1.24
CCCCCCCCCCCCCCCCCCC(=O)OC	0.884	0.812
O=C1O[C@H]([C@H](O)CO)C([O-])=C1O.[Na+]	0.987	1.04
CCN(CC)c1ccc(/C=N/NC(=O)c2ccc(O)cc2)cc1	0.857	0.8
O=c1c(O[C@@H]2O[C@H](CO)[C@@H](O)[C@H](O)[C@H]2O)c(-c2ccc(O)cc2)oc2cc(O)cc(O)c12	1.01	1.03
OCC(CO)N[C@H]1C[C@](O)(CO)[C@@H](O)[C@H](O)[C@H]1O	1.33	0.948
O=C(O)CCCc1c[nH]c2ccccc12	0.832	0.829
C=C1CC[C@@H]2[C@](C)(CO)[C@H](O)CC[C@@]2(C)[C@@H]1C/C=C1/C(=O)OC[C@H]1O	1.14	1.36
CC(=O)c1cnccn1	0.912	1.08
COc1cc(/C=C/C(=O)O)cc(OC)c1OC	1.03	1.03
CC(=O)c1ccccc1	0.843	0.948
COc1c(O)cc2c(c1O)C(=O)c1c(cc(C)c(O)c1OC)C2=O	1.12	1.03
O=C(O)Cc1cccc2ccccc12	0.973	1.05
CC(=O)Oc1cccc2c1C(=O)c1c(OC(C)=O)cc(C(=O)O)cc1C2=O	1.43	0.92
Cc1cccc2c3c(ccc12)C1=C(C(=O)C3=O)[C@@H](C)CO1	0.946	1.07
C[C@@H](O)[C@H]1C(=O)N2C(C(=O)O)=C(SCCNC=N)C[C@H]12	1.09	1.13
C=CCCC(=O)O	1.01	0.732
CC1(C)S[C@@H]2[C@H](NC(=O)[C@H](N)c3ccccc3)C(=O)N2[C@H]1C(=O)O	1.08 and 1.13	0.8 and 0.836
Nc1c(O)cccc1C(=O)O	0.943	0.892
CNC[C@H](O)c1ccc(O)c(O)c1	0.929 and 1.16	0.931 and 0.92

Structure (SMILES)	cell viability [1]	cell viability [2]
CC(C(=O)O)c1ccccc1 (configuration not stated)	0.947	0.953
O=c1ccoc2cc(O)cc(O)c12	1.25	1.03
O=C(O)CC(=O)CC(=O)O	1.58	0.928
CC(=O)OCC(=O)[C@H]1CC[C@H]2[C@@H]3CCC4=CC(=O)CC[C@]4(C)[C@H]3CC[C@]12C	1.22	0.888
Nc1ccn([C@@H]2O[C@H](CO)[C@@H](O)[C@H]2O)c(=O)n1	1.06	0.951
C#C[C@]1(O)CC[C@H]2[C@@H]3CCc4cc(O)ccc4[C@H]3CC[C@@]21C	1.16	0.914
Cn1c(=O)c2c(ncn2CC(=O)O)n(C)c1=O	0.837	0.985
N#CC(c1ccc(Cl)cc1)c1c(Cl)cc(-n2ncc(=O)[nH]c2=O)cc1Cl (configuration not stated)	1.08	0.827
C=C[C@H]1CN2CC[C@H]1C[C@@H]2[C@@H](O)c1ccnc2ccc(OC)cc12	0.837	0.896
O[C@@H]1[C@@H](O)[C@@H](OC/C=C/c2ccccc2)O[C@H](CO[C@@H]2OC[C@H](O)[C@H](O)[C@H]2O)[C@H]1O	1.05	1.06
O=C1c2cccc3c2[C@H](CCC3)CN1[C@@H]1CN2CCC1CC2	0.81	0.864
C[C@H](CCC(=O)NCC(=O)O)[C@H]1CC[C@H]2[C@@H]3[C@H](O)C[C@@H]4C[C@H](O)CC[C@]4(C)[C@H]3C[C@H](O)[C@]12C	0.918	0.843
O=C(/C=C/c1ccc(O[C@@H]2O[C@H](CO)[C@@H](O)[C@H](O)[C@H]2O)cc1)c1ccc(O)cc1O	1.13	0.889
O=C(O)Cc1c[nH]c2ccc(O)cc12	1.1	1.06
O=Cc1ccc(OC2OC(CO)C(O)C(O)C2O)cc1 (configuration not stated)	0.934	1.02
O=C(O)c1cccc(O)c1O	0.941	0.873
CCCCN1C[C@H](O)[C@@H](O)[C@H](O)[C@H]1CO	0.724	0.944
CC1(C)[C@@H](O[C@H]2O[C@H](C(=O)O)[C@@H](O)[C@H](O)[C@H]2O[C@@H]2O[C@H](C(=O)O)[C@@H](O)[C@H](O)[C@H]2O)CC[C@]2(C)[C@H]3C(=O)C=C4[C@@H]5C[C@@](C)(C(=O)O)CC[C@]5(C)CC[C@@]4(C)[C@]3(C)CC[C@@H]12	0.926 and 1.05	0.871 and 1.08
COC1=C(OC)C(=O)C(CCCCCCCCCCO)=C(C)C1=O	0.933	0.939
CCCCC/C=C\C/C=C\CCCCCCCC(=O)O	0.914	1.01
COc1cc2c(c(OC)c1OC)-c1c(cc3c(c1OC)OCO3)C[C@H](C)[C@@](C)(O)C2	1.32	0.96
O=C(O)CCCCCCC(=O)O	1.24	0.892

Ordered by SMILES length (ascending): some entries from above.
Structure (SMILES)	cell viability [1]	cell viability [2]
COc1cc(/C=C/C(=O)O)cc(OC)c1OC	1.03	1.03
Cn1c(=O)c2c(ncn2CC(=O)O)n(C)c1=O	0.837	0.985
CCCCN1C[C@H](O)[C@@H](O)[C@H](O)[C@H]1CO	0.724	0.944

Next part

Structure (SMILES)	cell viability [1]	cell viability [2]
O=c1cc(-c2ccccc2)oc2cc(O)cc(O)c12	1.81	0.85
c1ccc(CNc2ncnc3[nH]cnc23)cc1	0.343	0.566
OC[C@H]1O[C@@](CO)(O[C@H]2O[C@H](CO)[C@@H](O)[C@H](O)[C@H]2O)[C@@H](O)[C@@H]1O	1.19	0.884
C/C1=C\CC(C)(C)/C=C/C(=O)/C(C)=C/CC1	1.06	0.945
CC1CCc2c(N3CCC(O)CC3)c(F)cc3c(=O)c(C(=O)O)cn1c23 (configuration not stated)	0.918	0.85
Cn1c(=O)[nH]c(=O)c2[nH]cnc21	0.966	0.945
OC[C@H]1OC(O)[C@@H](O)[C@@H](O)[C@@H]1O (some centres not stated)	0.988	0.998
O=C(/C=C/c1ccc(O)c(O)c1)OCCc1ccccc1	1.07	0.867
CC(=O)NC(Cc1ccccc1)C(=O)O (configuration not stated)	1.13	0.973
CN(C)[C@@H]1C(O)=C(C(N)=O)C(=O)[C@@]2(O)C(O)=C3C(=O)c4c(O)ccc(Cl)c4[C@@](C)(O)[C@H]3C[C@@H]12	0.875	0.757
Oc1ccccc1O	0.991	0.956
O=c1ccc2cc(O)c(O)cc2o1	0.88	0.865
CC1CC[C@@]2(OC1)O[C@H]1C[C@H]3[C@@H]4CC[C@@H]5C[C@@H](O[C@@H]6O[C@H](CO)[C@H](O)[C@H](O)[C@H]6O[C@@H]6O[C@H](CO)[C@@H](O)[C@H](O)[C@H]6O)CC[C@]5(C)[C@H]4CC[C@]3(C)[C@H]1[C@@H]2C (some centres not stated)	0.881	0.733
CCN[C@@H]1C[C@H](N)[C@@H](O[C@H]2OC(CN)=CC[C@H]2N)[C@H](O)[C@H]1O[C@H]1OC[C@](C)(O)[C@H](NC)[C@H]1O	1.35	0.919
O=C(/C=C/c1ccc(O)c(O)c1)O[C@H](Cc1ccc(O)c(O)c1)C(=O)O	0.801	1.15
NCCc1c[nH]cn1	1.34 and 1.28 and 1.07	0.987 and 0.932 and 0.875
N[C@@H]1CCCCN(c2c(F)cc3c(=O)c(C(=O)O)cn(C4CC4)c3c2Cl)C1	1	0.994
CN1c2ccccc2C(=O)N2CCc3c([nH]c4ccccc34)[C@@H]21	1.01	0.925
CNC(=O)c1cc(Oc2ccc(NC(=O)Nc3ccc(Cl)c(C(F)(F)F)c3)cc2)ccn1	0.805	0.341
CC[C@H]1OC(=O)[C@H](C)[C@@H](O[C@H]2C[C@@](C)(OC)[C@@H](O)[C@H](C)O2)[C@H](C)[C@@H](O[C@@H]2O[C@H](C)C[C@H](N(C)C)[C@H]2O)[C@](C)(O)C[C@@H](C)[C@@H]2N[C@@H](COCCOC)O[C@H]([C@H]2C)[C@]1(C)O	1.03	0.954
CO[C@H]1[C@H](O)[C@@H](O)[C@@H](O)[C@H](O)[C@@H]1O	0.979	0.923
CC1(C)O[C@H]2CC(=O)OC[C@]23[C@H]2CC[C@@]4(C)[C@H](c5ccoc5)OC(=O)[C@H]5O[C@]54[C@]2(C)C(=O)C[C@@H]13	1.12	0.922

Structure (SMILES)	cell viability [1]	cell viability [2]
Cc1ccnc(NS(=O)(=O)c2ccc(N)cc2)n1	0.835	0.896
Cc1cccc(O)c1	1.01	0.895
CC(=O)N[C@@H](Cc1ccc(O)cc1)C(=O)O	0.906	0.931
Cc1occc(=O)c1O	0.929	0.946
Nc1c2ccccc2nc2ccccc12	0.629	0.894
CC[C@H](C)[C@@H]([C@@H](CC(=O)N1CCC[C@H]1[C@H](OC)[C@@H](C)C(=O)N[C@@H](Cc1ccccc1)c1nccs1)OC)N(C)C(=O)[C@@H](NC(=O)[C@H](C(C)C)N(C)C)C(C)C	0.546	0.705
C[C@@H](O[C@H]1OCCN(Cc2nn(P(=O)(O)O)c(=O)[nH]2)[C@H]1c1ccc(F)cc1)c1cc(C(F)(F)F)cc(C(F)(F)F)c1	0.734	0.877
CC(C)=CCC/C(C)=C/CC/C(C)=C/CC/C=C(\C)CC/C=C(\C)CCC=C(C)C	1.32	0.936
COc1ccc2cc1Oc1ccc(cc1)C[C@H]1c3cc(c(OC)cc3CCN1C)Oc1c(O)c(OC)cc3c1[C@H](C2)N(C)CC3	0.594	0.986
CCCCCCCCCCCC1=C(O)C(=O)C=C(O)C1=O	0.859	0.716
O=C(O)C(O)C(O)C(=O)O (configuration not stated)	0.999	1.06
C[C@@H](O)[C@H]1C(=O)N2C(C(=O)OCOC(=O)C(C)(C)C)=C(SC3CN(C4=NCCS4)C3)[C@H](C)[C@H]12	0.991	0.986
COc1ccc(C[C@@H]2c3cc(Oc4cc(C[C@@H]5c6cc(OC)c(OC)cc6CCN5C)ccc4O)c(OC)cc3CCN2C)cc1	0.946	1.23
O=C(O)c1c[nH]c2ccccc12	0.919	1.03
Oc1ccc(OC2CCCCO2)cc1 (configuration not stated)	1.07	0.902
O=C1O[C@H]([C@@H](O)CO)C(O)=C1O	1.14	0.945
C[C@@H](N)C(=O)O	0.958	0.97
CCC(C)C(NC(=O)C(C(C)CC)N(C)C(C)=O)C(=O)NC(C(=O)NC(CC(C)C)C(=O)C1(C)CO1)C(C)O (configuration not stated)	0.636	0.618
CC(C)(CO)[C@@H](O)C(=O)NCCCO	1.15	0.689
CO[C@H]1/C=C/O[C@@]2(C)Oc3c(C)c(O)c4c(O)c(c(/C=N/N5CCN(C6CCCC6)CC5)c(O)c4c3C2=O)NC(=O)/C(C)=C\C=C\[C@H](C)[C@H](O)[C@@H](C)[C@@H](O)[C@@H](C)[C@H](OC(C)=O)[C@@H]1C	0.974	0.745
